# Laboratory results reported in the supplement of paper PMC10849652.
# Chains of the proteins cited; added tags and fusions are not shown. Lines headed by an entry give the natural chain unless they say otherwise; changes in a name come on top.
# UniProt O75083: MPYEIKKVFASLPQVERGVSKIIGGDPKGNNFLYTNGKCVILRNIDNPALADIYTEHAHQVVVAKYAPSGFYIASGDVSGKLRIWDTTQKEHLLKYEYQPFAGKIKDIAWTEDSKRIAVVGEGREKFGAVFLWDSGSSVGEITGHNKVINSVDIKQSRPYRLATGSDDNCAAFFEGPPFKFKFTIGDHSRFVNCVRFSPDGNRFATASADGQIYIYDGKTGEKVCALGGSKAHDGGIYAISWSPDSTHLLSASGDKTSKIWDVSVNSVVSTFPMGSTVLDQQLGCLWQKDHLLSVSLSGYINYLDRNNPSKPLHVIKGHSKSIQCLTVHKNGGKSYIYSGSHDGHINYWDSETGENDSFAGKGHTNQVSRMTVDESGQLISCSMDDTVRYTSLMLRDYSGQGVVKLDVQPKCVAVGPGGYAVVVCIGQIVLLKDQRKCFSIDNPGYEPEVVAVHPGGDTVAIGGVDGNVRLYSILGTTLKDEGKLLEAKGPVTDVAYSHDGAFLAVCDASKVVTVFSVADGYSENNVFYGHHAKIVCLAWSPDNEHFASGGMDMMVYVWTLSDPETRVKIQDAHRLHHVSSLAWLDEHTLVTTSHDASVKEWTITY
# UniProt Q5MNZ9: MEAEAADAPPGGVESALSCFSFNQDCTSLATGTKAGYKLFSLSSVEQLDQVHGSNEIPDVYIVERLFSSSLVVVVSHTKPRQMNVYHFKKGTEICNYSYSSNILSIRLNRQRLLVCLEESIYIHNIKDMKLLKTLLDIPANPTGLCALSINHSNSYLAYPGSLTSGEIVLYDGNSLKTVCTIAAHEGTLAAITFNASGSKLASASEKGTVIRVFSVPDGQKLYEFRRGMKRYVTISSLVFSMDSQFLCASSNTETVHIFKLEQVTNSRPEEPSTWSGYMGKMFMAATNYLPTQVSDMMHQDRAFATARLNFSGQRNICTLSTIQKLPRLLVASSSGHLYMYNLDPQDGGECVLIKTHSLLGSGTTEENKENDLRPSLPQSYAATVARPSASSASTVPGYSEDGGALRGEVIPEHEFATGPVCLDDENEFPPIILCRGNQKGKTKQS
# UniProt Q9H269: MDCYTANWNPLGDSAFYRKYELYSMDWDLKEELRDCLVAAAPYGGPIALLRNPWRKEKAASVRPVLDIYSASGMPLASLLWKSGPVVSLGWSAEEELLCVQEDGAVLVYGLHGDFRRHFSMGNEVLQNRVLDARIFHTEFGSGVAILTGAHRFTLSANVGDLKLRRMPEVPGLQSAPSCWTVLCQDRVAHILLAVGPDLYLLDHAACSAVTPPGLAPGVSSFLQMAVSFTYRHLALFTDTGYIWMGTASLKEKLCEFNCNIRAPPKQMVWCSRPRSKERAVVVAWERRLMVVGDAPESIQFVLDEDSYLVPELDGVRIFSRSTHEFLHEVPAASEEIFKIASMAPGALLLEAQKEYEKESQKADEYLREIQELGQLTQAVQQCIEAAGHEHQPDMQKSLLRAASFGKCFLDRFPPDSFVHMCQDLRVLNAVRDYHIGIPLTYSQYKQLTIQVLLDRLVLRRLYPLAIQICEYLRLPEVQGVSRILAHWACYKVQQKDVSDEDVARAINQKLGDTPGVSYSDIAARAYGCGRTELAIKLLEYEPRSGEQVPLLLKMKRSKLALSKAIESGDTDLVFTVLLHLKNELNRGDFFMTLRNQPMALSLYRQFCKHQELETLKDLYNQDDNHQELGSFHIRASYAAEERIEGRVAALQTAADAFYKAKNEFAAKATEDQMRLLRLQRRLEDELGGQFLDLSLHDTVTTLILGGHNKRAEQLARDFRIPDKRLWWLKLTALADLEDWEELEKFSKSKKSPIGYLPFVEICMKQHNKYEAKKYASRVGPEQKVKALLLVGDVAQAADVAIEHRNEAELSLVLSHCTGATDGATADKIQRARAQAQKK
# UniProt Q15007: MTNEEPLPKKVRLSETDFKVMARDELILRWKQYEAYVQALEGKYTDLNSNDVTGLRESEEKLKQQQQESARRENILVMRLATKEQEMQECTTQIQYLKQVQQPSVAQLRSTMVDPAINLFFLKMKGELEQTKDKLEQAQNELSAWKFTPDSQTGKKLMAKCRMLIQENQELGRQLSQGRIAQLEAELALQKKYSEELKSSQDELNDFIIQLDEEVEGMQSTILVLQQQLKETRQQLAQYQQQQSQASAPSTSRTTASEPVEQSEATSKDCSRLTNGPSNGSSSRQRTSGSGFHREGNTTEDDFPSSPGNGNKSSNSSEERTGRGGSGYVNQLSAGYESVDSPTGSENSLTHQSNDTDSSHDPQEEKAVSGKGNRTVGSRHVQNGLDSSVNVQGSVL
# UniProt Q5JSD2: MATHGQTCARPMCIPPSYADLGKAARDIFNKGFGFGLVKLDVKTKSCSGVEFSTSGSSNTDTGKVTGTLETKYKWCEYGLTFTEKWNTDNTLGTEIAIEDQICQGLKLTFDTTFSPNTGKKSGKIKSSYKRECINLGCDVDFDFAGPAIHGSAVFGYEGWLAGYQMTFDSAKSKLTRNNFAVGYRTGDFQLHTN
# UniProt Q9H967: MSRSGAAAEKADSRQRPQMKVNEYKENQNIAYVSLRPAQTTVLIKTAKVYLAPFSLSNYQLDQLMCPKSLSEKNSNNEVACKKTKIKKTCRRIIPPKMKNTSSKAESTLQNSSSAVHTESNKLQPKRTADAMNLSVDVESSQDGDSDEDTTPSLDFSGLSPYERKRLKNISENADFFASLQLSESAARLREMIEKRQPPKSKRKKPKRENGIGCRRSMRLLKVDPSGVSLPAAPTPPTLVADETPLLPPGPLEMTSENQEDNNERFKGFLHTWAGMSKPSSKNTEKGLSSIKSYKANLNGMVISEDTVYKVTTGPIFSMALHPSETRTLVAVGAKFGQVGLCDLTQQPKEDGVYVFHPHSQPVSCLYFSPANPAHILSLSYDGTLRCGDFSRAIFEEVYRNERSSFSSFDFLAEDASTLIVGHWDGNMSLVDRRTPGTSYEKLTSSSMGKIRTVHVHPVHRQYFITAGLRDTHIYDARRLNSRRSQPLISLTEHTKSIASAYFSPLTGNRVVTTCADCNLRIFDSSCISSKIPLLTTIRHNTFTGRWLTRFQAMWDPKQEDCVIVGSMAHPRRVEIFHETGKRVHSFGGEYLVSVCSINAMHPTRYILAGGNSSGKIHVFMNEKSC
# UniProt O15240: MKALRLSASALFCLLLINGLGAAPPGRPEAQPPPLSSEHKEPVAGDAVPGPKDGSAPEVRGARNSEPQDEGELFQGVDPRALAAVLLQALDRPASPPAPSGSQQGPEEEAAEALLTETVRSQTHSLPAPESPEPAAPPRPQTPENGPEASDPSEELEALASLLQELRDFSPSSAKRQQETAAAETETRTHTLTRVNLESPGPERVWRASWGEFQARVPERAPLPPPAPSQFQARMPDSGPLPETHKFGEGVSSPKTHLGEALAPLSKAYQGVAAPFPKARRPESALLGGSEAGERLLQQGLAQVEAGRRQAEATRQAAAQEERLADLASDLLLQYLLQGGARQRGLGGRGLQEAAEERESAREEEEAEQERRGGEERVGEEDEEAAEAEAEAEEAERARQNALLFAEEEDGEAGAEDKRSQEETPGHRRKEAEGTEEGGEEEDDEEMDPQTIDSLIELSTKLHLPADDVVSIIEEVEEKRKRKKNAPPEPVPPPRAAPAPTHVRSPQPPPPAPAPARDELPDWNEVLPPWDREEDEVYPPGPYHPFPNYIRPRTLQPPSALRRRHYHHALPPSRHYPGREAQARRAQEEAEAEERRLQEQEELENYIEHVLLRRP
# UniProt Q8IWA0: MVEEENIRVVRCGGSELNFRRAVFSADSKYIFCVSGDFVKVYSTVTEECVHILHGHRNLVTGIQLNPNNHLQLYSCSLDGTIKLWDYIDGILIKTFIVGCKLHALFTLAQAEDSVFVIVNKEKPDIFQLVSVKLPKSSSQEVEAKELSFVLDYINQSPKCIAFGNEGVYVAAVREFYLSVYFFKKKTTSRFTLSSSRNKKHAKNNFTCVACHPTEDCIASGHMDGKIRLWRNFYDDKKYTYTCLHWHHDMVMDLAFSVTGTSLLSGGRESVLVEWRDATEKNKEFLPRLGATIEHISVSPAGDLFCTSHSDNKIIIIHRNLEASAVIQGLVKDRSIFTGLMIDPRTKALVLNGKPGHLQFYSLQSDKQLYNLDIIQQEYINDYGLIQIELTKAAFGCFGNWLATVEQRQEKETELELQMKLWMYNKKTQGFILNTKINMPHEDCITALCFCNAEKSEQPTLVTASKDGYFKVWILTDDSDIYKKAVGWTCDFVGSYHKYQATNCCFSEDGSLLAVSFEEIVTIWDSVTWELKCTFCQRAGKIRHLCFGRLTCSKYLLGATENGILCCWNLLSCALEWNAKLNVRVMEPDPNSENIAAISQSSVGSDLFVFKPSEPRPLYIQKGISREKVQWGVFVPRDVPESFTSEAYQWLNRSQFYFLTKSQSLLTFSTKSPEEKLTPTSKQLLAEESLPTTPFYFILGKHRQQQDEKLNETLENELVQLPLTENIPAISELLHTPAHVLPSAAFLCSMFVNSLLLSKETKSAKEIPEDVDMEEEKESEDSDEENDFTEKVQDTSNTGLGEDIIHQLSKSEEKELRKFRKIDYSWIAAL
# UniProt Q15906, whole entry, looked up: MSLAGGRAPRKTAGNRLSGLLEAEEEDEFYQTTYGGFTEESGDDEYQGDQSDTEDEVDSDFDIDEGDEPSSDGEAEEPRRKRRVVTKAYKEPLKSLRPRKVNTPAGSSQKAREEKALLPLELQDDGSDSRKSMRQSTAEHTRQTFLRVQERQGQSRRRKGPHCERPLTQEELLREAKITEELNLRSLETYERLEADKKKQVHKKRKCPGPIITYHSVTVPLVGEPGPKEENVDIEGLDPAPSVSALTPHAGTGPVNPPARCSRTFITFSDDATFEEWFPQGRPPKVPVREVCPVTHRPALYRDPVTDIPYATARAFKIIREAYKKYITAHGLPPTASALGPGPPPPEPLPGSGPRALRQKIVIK
# UniProt Q9C0J8: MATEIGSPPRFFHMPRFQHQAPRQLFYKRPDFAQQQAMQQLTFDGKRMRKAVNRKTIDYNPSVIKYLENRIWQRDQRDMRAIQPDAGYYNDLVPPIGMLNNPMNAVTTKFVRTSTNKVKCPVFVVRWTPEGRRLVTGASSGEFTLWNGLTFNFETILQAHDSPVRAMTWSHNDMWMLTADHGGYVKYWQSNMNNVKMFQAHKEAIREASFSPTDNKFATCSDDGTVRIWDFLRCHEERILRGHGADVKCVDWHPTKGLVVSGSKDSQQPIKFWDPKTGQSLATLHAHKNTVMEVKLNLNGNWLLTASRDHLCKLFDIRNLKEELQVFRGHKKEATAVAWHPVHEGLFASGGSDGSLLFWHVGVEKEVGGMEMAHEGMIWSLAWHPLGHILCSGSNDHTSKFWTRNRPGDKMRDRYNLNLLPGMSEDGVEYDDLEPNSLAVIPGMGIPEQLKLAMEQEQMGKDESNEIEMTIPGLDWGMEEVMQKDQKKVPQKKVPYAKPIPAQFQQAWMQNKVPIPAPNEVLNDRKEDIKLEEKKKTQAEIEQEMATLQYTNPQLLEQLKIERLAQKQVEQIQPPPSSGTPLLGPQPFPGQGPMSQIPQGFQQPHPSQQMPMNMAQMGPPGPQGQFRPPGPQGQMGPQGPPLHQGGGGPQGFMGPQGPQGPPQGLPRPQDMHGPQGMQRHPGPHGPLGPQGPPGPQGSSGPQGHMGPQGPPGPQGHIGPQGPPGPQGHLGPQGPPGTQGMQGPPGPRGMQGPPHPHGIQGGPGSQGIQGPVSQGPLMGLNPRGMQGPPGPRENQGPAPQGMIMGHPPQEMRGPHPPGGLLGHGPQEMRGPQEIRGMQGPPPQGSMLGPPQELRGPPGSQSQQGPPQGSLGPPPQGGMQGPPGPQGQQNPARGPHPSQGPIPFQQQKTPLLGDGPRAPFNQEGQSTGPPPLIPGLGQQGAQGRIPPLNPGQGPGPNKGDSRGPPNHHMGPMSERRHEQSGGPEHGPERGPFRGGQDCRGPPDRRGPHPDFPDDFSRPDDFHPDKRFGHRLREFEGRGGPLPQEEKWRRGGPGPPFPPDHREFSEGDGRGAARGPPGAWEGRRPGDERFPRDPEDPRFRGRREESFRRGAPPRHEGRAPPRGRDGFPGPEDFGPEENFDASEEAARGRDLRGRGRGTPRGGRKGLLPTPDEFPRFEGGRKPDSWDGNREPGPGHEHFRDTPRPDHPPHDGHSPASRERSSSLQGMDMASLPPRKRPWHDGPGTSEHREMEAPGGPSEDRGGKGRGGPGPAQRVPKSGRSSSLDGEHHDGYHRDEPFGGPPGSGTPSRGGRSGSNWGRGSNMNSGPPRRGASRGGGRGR
# UniProt Q9H977: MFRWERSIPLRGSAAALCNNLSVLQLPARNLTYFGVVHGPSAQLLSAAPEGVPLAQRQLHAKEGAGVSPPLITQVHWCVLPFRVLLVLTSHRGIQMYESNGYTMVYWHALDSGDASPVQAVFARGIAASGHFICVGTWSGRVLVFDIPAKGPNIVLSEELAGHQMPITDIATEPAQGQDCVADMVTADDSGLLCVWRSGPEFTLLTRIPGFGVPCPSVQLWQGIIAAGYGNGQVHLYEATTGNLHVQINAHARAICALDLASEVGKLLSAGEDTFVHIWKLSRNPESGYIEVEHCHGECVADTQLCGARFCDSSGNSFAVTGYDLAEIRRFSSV
# Some of the results follow.
# What was measured:
# Test in all cases: log2 fold change, soluble protein after heating vs DMSO (PISA); higher = thermal stabilisation; K562 cells, 10 uM, 30 min; active = over 0.2 and 3.5 SD of the protein, either way, in both replicates (recomputed)
# bafetinib = compound: Cc1ccc(NC(=O)c2ccc(CN3CC[C@H](N(C)C)C3)c(C(F)(F)F)c2)cc1Nc1nccc(-c2cncnc2)n1 [bafetinib]
# Method in brief: (§1)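 Aliquots of K562 cells (2×10^6 cells/mL) treated with 10 μM compound for 30 min were heated for 3 min over 48°C-58°C. After pooling and extraction in PBS with 0.5% NP-40 at 4°C, soluble protein from a 21,000xg, 90 min spin was quantified by TMTpro 16plex LC-MS/MS with channel sums equalised. Thermal stability is expressed against control samples, from duplicates, as a log2 fold change.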
# [1] = compound: Cc1cccc(CC(=O)N2CCc3c2ccc(-c2cn(C)c4ncnc(N)c24)c3F)n1
# Method in brief: as §1
# nilotinib = compound: Cc1cn(-c2cc(NC(=O)c3ccc(C)c(Nc4nccc(-c5cccnc5)n4)c3)cc(C(F)(F)F)c2)cn1 [nilotinib]
# Method in brief: as §1
# [2] = compound: Cc1nc(Nc2n[nH]c3c2CN(C(=O)N[C@H](CN(C)C)c2ccccc2)C3(C)C)c2sccc2n1
# Method in brief: as §1
# dasatinib = compound: Cc1nc(Nc2ncc(C(=O)Nc3c(C)cccc3Cl)s2)cc(N2CCN(CCO)CC2)n1 [dasatinib]
# Method in brief: as §1
# [3] = compound: Cc1ncc(-c2ccnc(Nc3ccc(S(C)(=O)=O)cc3)n2)n1C(C)C
# Method in brief: as §1
# [4] = compound: Cn1cc(-c2ccc3c(c2)CCN3C(=O)Cc2cccc(C(F)(F)F)c2)c2c(N)ncnc21
# Method in brief: as §1
# [5] = compound: Cn1cc(-c2ccc3nnc(C(F)(F)c4ccc5ncccc5c4)n3n2)cn1
# Method in brief: as §1
# tipifarnib = compound: Cn1cncc1[C@@](N)(c1ccc(Cl)cc1)c1ccc2c(c1)c(-c1cccc(Cl)c1)cc(=O)n2C [tipifarnib]
# Method in brief: as §1
# mubritinib = compound: FC(F)(F)c1ccc(/C=C/c2nc(COc3ccc(CCCCn4ccnn4)cc3)co2)cc1 [mubritinib]
# Method in brief: as §1
Target,log2 fold change (bafetinib),log2 fold change [1],log2 fold change (nilotinib),log2 fold change [2],log2 fold change (dasatinib),log2 fold change [3],log2 fold change [4],log2 fold change [5],log2 fold change (tipifarnib),log2 fold change (mubritinib)
WDR1 (UniProt O75083),inactive: 0.006,inactive: 0.002,inactive: 0.002,inactive: 0.018,inactive: 0.002,inactive: -0.012,inactive: 0.122,inactive: 0.011,inactive: -0.092,inactive: 0.093
VRK2 (UniProt Q86Y07),inactive: 0.033,inactive: 0.081,inactive: -0.062,active: 0.414,inactive: 0.011,inactive: 0.033,inactive: 0.129,inactive: -0.066,inactive: -0.057,inactive: 0.006
WIPF1 isoform 3 (UniProt O43516),inactive: -0.109,inactive: 0.026,inactive: -0.051,inactive: 0.174,inactive: 0.138,inactive: -0.202,inactive: 0.056,inactive: 0.036,inactive: -0.157,inactive: 0.277
XIAP (UniProt P98170),inactive: -0.111,inactive: -0.046,inactive: 0.366,inactive: 0.061,inactive: -0.027,inactive: -0.288,inactive: 0.029,–,inactive: -0.078,inactive: 0.095
WARS (UniProt P23381),inactive: -0.031,inactive: -0.022,inactive: 0.023,inactive: 0.008,inactive: 0.011,inactive: 0.006,inactive: 0.029,inactive: -0.033,inactive: -0.039,inactive: -0.004
WIPI1 (UniProt Q5MNZ9),inactive: -0.164,inactive: 0.058,inactive: 0.026,inactive: -0.278,inactive: 0.012,inactive: 0.078,inactive: -0.019,inactive: 0.052,inactive: 0.015,inactive: 0.073
VPS16 (UniProt Q9H269),inactive: 0.041,inactive: 0.178,inactive: -0.038,inactive: -0.071,inactive: -0.14,inactive: -0.022,inactive: -0.039,inactive: 0.04,inactive: -0.078,inactive: 0.083
VRK3 (UniProt Q8IV63),inactive: -0.028,inactive: 0.047,inactive: -0.04,inactive: 0.056,–,inactive: -0.162,inactive: -0.092,inactive: -0.001,inactive: -0.033,inactive: 0.068
WARS1 (UniProt G3V277),inactive: -0.008,inactive: -0.116,inactive: -0.065,inactive: 0.039,–,inactive: -0.034,–,–,–,inactive: 0
VPS13A isoform 4 (UniProt Q96RL7),–,–,–,–,–,–,–,inactive: -0.035,inactive: 0.148,–
VDAC1 (UniProt C9JI87),inactive: -0.152,–,inactive: -0.009,inactive: -0.048,inactive: 0.277,inactive: -0.106,inactive: -0.16,inactive: 0.22,inactive: 0.242,inactive: 0.133
VLDLR (UniProt P98155),–,inactive: -0.057,inactive: -0.011,inactive: -0.147,–,inactive: -0.164,–,–,–,inactive: -0.051
VNN1 (UniProt O95497),–,–,–,–,–,–,inactive: 0.034,–,–,–
WTAP (UniProt Q15007),–,–,–,–,inactive: -0.081,–,–,–,inactive: -0.081,–
"WDR46, A0A0G2JJL1",inactive: 0.339,–,inactive: -0.094,inactive: 0.202,inactive: 0.381,inactive: 0.105,–,–,inactive: 0.171,inactive: -0.051
WWOX (UniProt Q9NZC7),–,–,–,–,–,–,inactive: 0.19,–,inactive: 0.045,inactive: -0.058
XAB2 (UniProt Q9HCS7),–,–,–,–,inactive: -0.092,–,–,inactive: 0.125,–,inactive: -0.151
WDR53 (UniProt Q7Z5U6),inactive: -0.059,inactive: -0.009,–,–,inactive: 0.075,–,inactive: -0.139,inactive: 0.273,inactive: 0.062,inactive: -0.048
WAC (UniProt Q9BTA9),–,inactive: 0.064,–,–,–,–,–,–,inactive: -0.251,–
VDAC2 (UniProt Q5JSD1),inactive: 0.165,–,inactive: -0.155,inactive: 0.001,–,inactive: -0.089,–,inactive: 0.114,inactive: 0.095,inactive: 0.118
WARS1 (UniProt G3V5U1),inactive: -0.569,–,–,–,–,–,–,–,–,inactive: -0.161

# Shown with tabs: part of the list above.
Target	log2 fold change (bafetinib)	log2 fold change [1]	log2 fold change (nilotinib)	log2 fold change [2]	log2 fold change (dasatinib)	log2 fold change [3]	log2 fold change [4]	log2 fold change [5]	log2 fold change (tipifarnib)	log2 fold change (mubritinib)
VPS16 (UniProt Q9H269)	inactive: 0.041	inactive: 0.178	inactive: -0.038	inactive: -0.071	inactive: -0.14	inactive: -0.022	inactive: -0.039	inactive: 0.04	inactive: -0.078	inactive: 0.083
VRK3 (UniProt Q8IV63)	inactive: -0.028	inactive: 0.047	inactive: -0.04	inactive: 0.056	–	inactive: -0.162	inactive: -0.092	inactive: -0.001	inactive: -0.033	inactive: 0.068
WARS1 (UniProt G3V277)	inactive: -0.008	inactive: -0.116	inactive: -0.065	inactive: 0.039	–	inactive: -0.034	–	–	–	inactive: 0
VPS13A isoform 4 (UniProt Q96RL7)	–	–	–	–	–	–	–	inactive: -0.035	inactive: 0.148	–
VDAC1 (UniProt C9JI87)	inactive: -0.152	–	inactive: -0.009	inactive: -0.048	inactive: 0.277	inactive: -0.106	inactive: -0.16	inactive: 0.22	inactive: 0.242	inactive: 0.133
VLDLR (UniProt P98155)	–	inactive: -0.057	inactive: -0.011	inactive: -0.147	–	inactive: -0.164	–	–	–	inactive: -0.051
VNN1 (UniProt O95497)	–	–	–	–	–	–	inactive: 0.034	–	–	–

# Next part:

Target,log2 fold change (bafetinib),log2 fold change [1],log2 fold change (nilotinib),log2 fold change [2],log2 fold change (dasatinib),log2 fold change [3],log2 fold change [4],log2 fold change [5],log2 fold change (tipifarnib),log2 fold change (mubritinib)
VDAC2 (UniProt Q5JSD2),inactive: -0.165,inactive: -0.216,inactive: -0.065,inactive: 0.046,–,inactive: -0.001,–,–,inactive: 0.298,inactive: 0.02
WDR76 (UniProt Q9H967),–,–,–,–,–,–,–,–,inactive: -0.013,–
WIPI2 isoform 6 (UniProt Q9Y4P8),inactive: 0.113,inactive: -0.071,–,–,–,–,inactive: 0.034,–,inactive: -0.018,–
VEGFA (UniProt H0YBI8),inactive: 0.029,–,inactive: 0.398,inactive: -0.053,inactive: 0.292,inactive: 0.096,–,inactive: -0.172,inactive: -0.057,inactive: 0.115
WDR91 (UniProt A4D1P6),inactive: 0.193,–,–,–,inactive: -0.685,–,inactive: -0.098,inactive: -0.252,inactive: 0.108,inactive: 0.097
VGF (UniProt O15240),inactive: 0.077,–,–,–,–,–,–,–,inactive: 0.139,–
VIPAS39 (UniProt Q9H9C1),inactive: 0.084,–,inactive: -0.16,inactive: -0.225,inactive: -0.446,inactive: -0.291,inactive: 0.022,–,inactive: -0.277,inactive: 0.01
WDR75 (UniProt Q8IWA0),inactive: 0.019,–,inactive: -0.214,inactive: 0.041,inactive: 0.085,inactive: 0.109,inactive: -0.252,inactive: -0.045,inactive: -0.021,inactive: -0.329
VHL (UniProt P40337),–,–,–,–,inactive: -0.196,–,inactive: 0.101,inactive: -0.028,–,–
WDR81 (UniProt Q562E7),inactive: -0.175,–,inactive: 0.012,inactive: -0.047,–,inactive: -0.064,–,inactive: 0.026,–,–
"WDR13, A0A087X091",–,–,inactive: 0.127,inactive: -0.011,–,inactive: -0.023,–,–,–,–
WARS1 (UniProt G3V227),inactive: 0,–,–,–,inactive: -0.164,–,inactive: -0.42,–,–,–
VPS72 isoform 2 (UniProt Q15906),inactive: -0.064,–,inactive: 0.086,inactive: 0.02,inactive: 0.044,inactive: -0.024,inactive: -0.052,inactive: 0.08,inactive: 0.074,inactive: 0.009
WDR19 (UniProt Q8NEZ3),inactive: -0.288,–,–,–,inactive: -0.062,–,inactive: 0.074,inactive: 0.001,inactive: 0.165,–
WDR33 (UniProt Q9C0J8),inactive: -0.017,–,inactive: 0.143,inactive: 0.097,–,inactive: 0.01,inactive: -0.014,inactive: -0.03,inactive: 0.115,inactive: -0.054
WDR24 (UniProt Q96S15),–,inactive: 0.049,–,–,–,–,inactive: -0.07,inactive: -0.283,inactive: -0.096,–
VTN (UniProt P04004),inactive: 0.044,–,inactive: 0.076,inactive: 0.067,inactive: 0.09,inactive: 0.224,inactive: 0.059,inactive: -0.085,inactive: 0.149,inactive: -0.197
"VPS35, A0A1W2PP10",inactive: -0.032,–,inactive: 0.024,inactive: -0.136,–,inactive: -0.027,–,–,inactive: 0.084,inactive: -0.004
WDFY2 (UniProt Q96P53),–,–,–,–,inactive: -0.034,–,–,–,–,–
WDR54 isoform 4 (UniProt Q9H977),–,–,inactive: -0.087,inactive: -0.249,inactive: -0.112,inactive: -0.049,–,–,–,–
